Measurements as given in publication PMC5352113.
Results are given in words; binding and its absence hold for the method and conditions named. In cells and extracts the contact can be indirect. A yes stands for co-enrichment or nearness to the bait. Other partners may have been found. For some assays here: No binding means not detected with the bait. One block for each binder: values may come before it.

Key:
[1] = biological target: T1, vascular endothelial (VE)-cadherin (human (endogenous in BLM, A375, MDA-MB-468, SKBR3)), P33151; experiment: affinity purification with mass spectrometry; 10 mg of BLM or MDA-MB-468 cell lysate immunoprecipitated with anti-VE-cadherin or control antibodies; SDS-PAGE, three slices, trypsin, nanoLC-MS/MS; contaminants filtered with CRAPome; details: remark: other sources report otherwise
T1 chain: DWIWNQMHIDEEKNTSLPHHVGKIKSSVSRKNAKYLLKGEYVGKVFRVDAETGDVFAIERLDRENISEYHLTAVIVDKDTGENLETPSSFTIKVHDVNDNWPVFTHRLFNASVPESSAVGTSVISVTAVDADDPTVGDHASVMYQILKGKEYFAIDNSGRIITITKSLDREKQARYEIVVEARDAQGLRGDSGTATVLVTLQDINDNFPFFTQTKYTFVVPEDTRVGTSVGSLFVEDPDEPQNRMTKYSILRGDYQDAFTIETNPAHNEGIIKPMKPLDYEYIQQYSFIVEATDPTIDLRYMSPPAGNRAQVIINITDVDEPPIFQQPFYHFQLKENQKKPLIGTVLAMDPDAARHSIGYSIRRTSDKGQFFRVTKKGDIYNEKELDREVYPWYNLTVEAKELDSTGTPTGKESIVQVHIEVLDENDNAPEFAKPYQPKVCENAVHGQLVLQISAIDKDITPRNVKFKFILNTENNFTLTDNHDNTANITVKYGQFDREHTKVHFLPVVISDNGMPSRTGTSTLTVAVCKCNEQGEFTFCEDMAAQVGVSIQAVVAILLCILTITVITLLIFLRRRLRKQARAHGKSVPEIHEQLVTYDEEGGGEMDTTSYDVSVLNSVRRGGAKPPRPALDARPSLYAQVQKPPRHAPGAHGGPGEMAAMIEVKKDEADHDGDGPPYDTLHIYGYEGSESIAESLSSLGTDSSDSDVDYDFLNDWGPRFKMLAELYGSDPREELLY

[2] = biological target: T2, vascular endothelial (VE)-cadherin (human (endogenous in BLM, A375, MDA-MB-468, SKBR3)) (UniProt P33151); experiment: as above
T2 sequence: T1 chain

B1: FAK, Q05397 1-1052 (enzyme)
chain: MAAAYLDPNLNHTPNSSTKTHLGTGMERSPGAMERVLKVFHYFESNSEPTTWASIIRHGDATDVRGIIQKIVDSHKVKHVACYGFRLSHLRSEEVHWLHVDMGVSSVREKYELAHPPEEWKYELRIRYLPKGFLNQFTEDKPTLNFFYQQVKSDYMLEIADQVDQEIALKLGCLEIRRSYWEMRGNALEKKSNYEVLEKDVGLKRFFPKSLLDSVKAKTLRKLIQQTFRQFANLNREESILKFFEILSPVYRFDKECFKCALGSSWIISVELAIGPEEGISYLTDKGCNPTHLADFTQVQTIQYSNSEDKDRKGMLQLKIAGAPEPLTVTAPSLTIAENMADLIDGYCRLVNGTSQSFIIRPQKEGERALPSIPKLANSEKQGMRTHAVSVSETDDYAEIIDEEDTYTMPSTRDYEIQRERIELGRCIGEGQFGDVHQGIYMSPENPALAVAIKTCKNCTSDSVREKFLQEALTMRQFDHPHIVKLIGVITENPVWIIMELCTLGELRSFLQVRKYSLDLASLILYAYQLSTALAYLESKRFVHRDIAARNVLVSSNDCVKLGDFGLSRYMEDSTYYKASKGKLPIKWMAPESINFRRFTSASDVWMFGVCMWEILMHGVKPFQGVKNNDVIGRIENGERLPMPPNCPPTLYSLMTKCWAYDPSRRPRFTELKAQLSTILEEEKAQQEERMRMESRRQATVSWDSGGSDEAPPKPSRPGYPSPRSSEGFYPSPQHMVQTNHYQVSGYPGSHGITAMAGSIYPGQASLLDQTDSWNHRPQEIAMWQPNVEDSTVLDLRGIGQVLPTHLMEERLIRQQQEMEEDQRWLEKEERFLKPDVRLSRGSIDREDGSLQGPIGNQHIYQPVGKPDPAAPPKKPPRPGAPGHLGSLASLSSPADSYNEGVKLQPQEISPPPTANLDRSNDKVYENVTGLVKAVIEMSSKIQPAPPEEYVPMVKEVGLALRTLLATVDETIPLLPASTHREIEMAQKLLNSDLGELINKMKLAQQYVMTSLQQEYKKQMLTAAHALAVDAKNLLDVIDQARLKMLGQTRPH
binding [1]: binds

B3: p120-catenin (protein, UniProt O60716 1-968)
chain: MDDSEVESTASILASVKEQEAQFEKLTRALEEERRHVSAQLERVRVSPQDANPLMANGTLTRRHQNGRFVGDADLERQKFSDLKLNGPQDHSHLLYSTIPRMQEPGQIVETYTEEDPEGAMSVVSVETSDDGTTRRTETTVKKVVKTVTTRTVQPVAMGPDGLPVDASSVSNNYIQTLGRDFRKNGNGGPGPYVGQAGTATLPRNFHYPPDGYSRHYEDGYPGGSDNYGSLSRVTRIEERYRPSMEGYRAPSRQDVYGPQPQVRVGGSSVDLHRFHPEPYGLEDDQRSMGYDDLDYGMMSDYGTARRTGTPSDPRRRLRSYEDMIGEEVPSDQYYWAPLAQHERGSLASLDSLRKGGPPPPNWRQPELPEVIAMLGFRLDAVKSNAAAYLQHLCYRNDKVKTDVRKLKGIPVLVGLLDHPKKEVHLGACGALKNISFGRDQDNKIAIKNCDGVPALVRLLRKARDMDLTEVITGTLWNLSSHDSIKMEIVDHALHALTDEVIIPHSGWEREPNEDCKPRHIEWESVLTNTAGCLRNVSSERSEARRKLRECDGLVDALIFIVQAEIGQKDSDSKLVENCVCLLRNLSYQVHREIPQAERYQEAAPNVANNTGPHAASCFGAKKGKDEWFSRGKKPIEDPANDTVDFPKRTSPARGYELLFQPEVVRIYISLLKESKTPAILEASAGAIQNLCAGRWTYGRYIRSALRQEKALSAIADLLTNEHERVVKAASGALRNLAVDARNKELIGKHAIPNLVKNLPGGQQNSSWNFSEDTVISILNTINEVIAENLEAAKKLRETQGIEKLVLINKSGNRSEKEVRAAALVLQTIWGYKELRKPLEKEGWKKSDFQVNLNNASRSQSSHSYDDSTLPLIDRNQKSDKKPDREEIQMSNMGSNTKSLDNNYSTPNERGDHNRTLDRSGDLGDMEPLKGTTPLMQDEGQESLEEELDVLVLDDEGGQVSYPSMQKI
binding [2]: binds

B4: ALCAM (protein, UniProt Q13740 28-583)
chain: WYTVNSAYGDTIIIPCRLDVPQNLMFGKWKYEKPDGSPVFIAFRSSTKKSVQYDDVPEYKDRLNLSENYTLSISNARISDEKRFVCMLVTEDNVFEAPTIVKVFKQPSKPEIVSKALFLETEQLKKLGDCISEDSYPDGNITWYRNGKVLHPLEGAVVIIFKKEMDPVTQLYTMTSTLEYKTTKADIQMPFTCSVTYYGPSGQKTIHSEQAVFDIYYPTEQVTIQVLPPKNAIKEGDNITLKCLGNGNPPPEEFLFYLPGQPEGIRSSNTYTLTDVRRNATGDYKCSLIDKKSMIASTAITVHYLDLSLNPSGEVTRQIGDALPVSCTISASRNATVVWMKDNIRLRSSPSFSSLHYQDAGNYVCETALQEVEGLKKRESLTLIVEGKPQIKMTKKTDPSGLSKTIICHVEGFPKPAIQWTITGSGSVINQTEESPYINGRYYSKIIISPEENVTLTCTAENQLERTVNSLNVSAISIPEHDEADEISDENREKVNDQAKLIVGIVVGLLLAALVAGVVYWLYMKKSKTASKHVNKDLGNMEENKKLEENNHKTEA
binding [2]: binds

Further lines, results first:

binding [2]: binds
B2: plakoglobin (protein, UniProt P14923 1-745)
chain: MEVMNLMEQPIKVTEWQQTYTYDSGIHSGANTCVPSVSSKGIMEEDEACGRQYTLKKTTTYTQGVPPSQGDLEYQMSTTARAKRVREAMCPGVSGEDSSLLLATQVEGQATNLQRLAEPSQLLKSAIVHLINYQDDAELATRALPELTKLLNDEDPVVVTKAAMIVNQLSKKEASRRALMGSPQLVAAVVRTMQNTSDLDTARCTTSILHNLSHHREGLLAIFKSGGIPALVRMLSSPVESVLFYAITTLHNLLLYQEGAKMAVRLADGLQKMVPLLNKNNPKFLAITTDCLQLLAYGNQESKLIILANGGPQALVQIMRNYSYEKLLWTTSRVLKVLSVCPSNKPAIVEAGGMQALGKHLTSNSPRLVQNCLWTLRNLSDVATKQEGLESVLKILVNQLSVDDVNVLTCATGTLSNLTCNNSKNKTLVTQNSGVEALIHAILRAGDKDDITEPAVCALRHLTSRHPEAEMAQNSVRLNYGIPAIVKLLNQPNQWPLVKATIGLIRNLALCPANHAPLQEAAVIPRLVQLLVKAHQDAQRHVAAGTQQPYTDGVRMEEIVEGCTGALHILARDPMNRMEIFRLNTIPLFVQLLYSSVENIQRVAAGVLCELAQDKEAADAIDAEGASAPLMELLHSRNEGTATYAAAVLFRISEDKNPDYRKRVSVELTNSLFKHDPAAWEAAQSMIPINEPYGDDMDATYRPMYSSDVPLDPLEMHMDMDGDYPIDTYSDGLRPPYPTADHMLA

binding [1]: no binding
B5: β-catenin, P35222 1-781 (protein)
chain: MATQADLMELDMAMEPDRKAAVSHWQQQSYLDSGIHSGATTTAPSLSGKGNPEEEDVDTSQVLYEWEQGFSQSFTQEQVADIDGQYAMTRAQRVRAAMFPETLDEGMQIPSTQFDAAHPTNVQRLAEPSQMLKHAVVNLINYQDDAELATRAIPELTKLLNDEDQVVVNKAAVMVHQLSKKEASRHAIMRSPQMVSAIVRTMQNTNDVETARCTAGTLHNLSHHREGLLAIFKSGGIPALVKMLGSPVDSVLFYAITTLHNLLLHQEGAKMAVRLAGGLQKMVALLNKTNVKFLAITTDCLQILAYGNQESKLIILASGGPQALVNIMRTYTYEKLLWTTSRVLKVLSVCSSNKPAIVEAGGMQALGLHLTDPSQRLVQNCLWTLRNLSDAATKQEGMEGLLGTLVQLLGSDDINVVTCAAGILSNLTCNNYKNKMMVCQVGGIEALVRTVLRAGDREDITEPAICALRHLTSRHQEAEMAQNAVRLHYGLPVVVKLLHPPSHWPLIKATVGLIRNLALCPANHAPLREQGAIPRLVQLLVRAHQDTQRRTSMGGTQQQFVEGVRMEEIVEGCTGALHILARDVHNRIVIRGLNTIPLFVQLLYSPIENIQRVAAGVLCELAQDKEAAEAIEAEGATAPLTELLHSRNEGVATYAAAVLFRMSEDKPQDYKKRLSVELTSSLFRTEPMAWNETADLGLDIGAQGEPLGYRQDDPSYRSFHSGGYGQDALGMDPMMEHEMGGHHPGADYPVDGLPDLGHAQDLMDGLPPGDSNQLAWFDTDL
